Source: patent US20240116988A1 (BRISTOL-MYERS SQUIBB COMPANY, priority 2022, published 2024)

Experiment: general procedure: Fmoc solid-phase peptide synthesis; Sieber amide resin (0.71 mmol/g); Rink resin (0.56 mmol/g); 2-chlorotrityl chloride resin (1.54 mmol/g); Fmoc-glycine-2-; HATU
Conditions: conjugation step

## 3-((S)-1-((3R,6S,9S,12S,15S,21S,24S,27S,30S,33S,36S)-15-((1H-indol-3-yl)methyl)-9,36-dibenzyl-12,24,33-tris(4- hydroxybenzyl)-21-(hydroxymethyl)-6,30-diisobutyl-27-isopropyl-10-methyl-5,8,11,14,17,20,23,26,29,32,35,38-dodecaoxo-1-thia-4,7,10,13,16,19,22,25,28,31,34,37-dodecaazacyclononatriacontan- 3-yl)-12-carbamoyl-1,4,7,10,18-pentaoxo-2,5,8,11,17-pentaazatricosan-23-yl)-2-((lE,3E,5E)-5-(3,3-dimethyl-5-sulfo-1-(4-sulfobutyl)indolin-2- ylidene)penta-1,3-dien-1-yl)-3-methyl-3H-indole-5-sulfonic acid
  conjugation yield: 83% yield
